Record: PubChem BioAssay AID493246 (Drosophila RNAi Screening Center, 2011)
The screen tested about 21,000 reagents; this is an unselected part of those with a known target gene and a result. Of all reagents, 429 (2%) got an active call. 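Values are raw and not normalised between plates; calls rest on per-plate z-scores that were not deposited.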 Reagents against one gene are numbered here. The record does not give: the amount of reagent, the time to read-out.

- Purpose: 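Genome-wide search for dsRNAs that reduce cell number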 (primary screen)
- System: Drosophila Kc and S2R+ cells
- Reagent: long dsRNA against Drosophila genes
- Read-out: 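Cell number per well after knock-down, printed as raw plate values; calls were based on per-plate z-scores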
- Scale: Kc cell number and S2R+ cell number: higher = more cells remaining
- Hit rule: 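Counted as a hit if cell number falls by a z-score of at least 3 within its plate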

CG12057 — Kc cell number, rep 1 = 1.63e6; Kc cell number, rep 2 = 1.72e6; S2R+ cell number, rep 1 = 1.07e6; S2R+ cell number, rep 2 = 1.24e6; activity call = inactive
HDAC1 (Histone deacetylase 1) — Kc cell number, rep 1 = 1.49e6; Kc cell number, rep 2 = 1.56e6; S2R+ cell number, rep 1 = 1.09e6; S2R+ cell number, rep 2 = 1.09e6; activity call = inactive
Lcp1Psi (Larval cuticle protein 1 pseudogene) — Kc cell number, rep 1 = 1.60e6; Kc cell number, rep 2 = 1.72e6; S2R+ cell number, rep 1 = 1.03e6; S2R+ cell number, rep 2 = 1.20e6; activity call = inactive
trbd (trabid) — Kc cell number, rep 1 = 1.37e6; Kc cell number, rep 2 = 1.49e6; S2R+ cell number, rep 1 = 1.24e6; S2R+ cell number, rep 2 = 1.29e6; activity call = inactive
Ppt1 (Palmitoyl-protein thioesterase 1) — Kc cell number, rep 1 = 1.57e6; Kc cell number, rep 2 = 1.57e6; S2R+ cell number, rep 1 = 1.12e6; S2R+ cell number, rep 2 = 1.21e6; activity call = inactive
axed (axundead) #1 — Kc cell number, rep 1 = 1.39e6; Kc cell number, rep 2 = 1.42e6; S2R+ cell number, rep 1 = 1.14e6; S2R+ cell number, rep 2 = 1.26e6; activity call = inactive
axed (axundead) #2 — Kc cell number, rep 1 = 1.50e6; Kc cell number, rep 2 = 1.34e6; S2R+ cell number, rep 1 = 1.23e6; S2R+ cell number, rep 2 = 1.28e6; activity call = inactive
CG34460 — Kc cell number, rep 1 = 1.62e6; Kc cell number, rep 2 = 1.71e6; S2R+ cell number, rep 1 = 1.06e6; S2R+ cell number, rep 2 = 1.20e6; activity call = inactive
ttm3 (tiny tim 3) — Kc cell number, rep 1 = 1.63e6; Kc cell number, rep 2 = 1.85e6; S2R+ cell number, rep 1 = 1.40e6; S2R+ cell number, rep 2 = 3.32e5; activity call = inactive
jumu (jumeau) — Kc cell number, rep 1 = 1.26e6; Kc cell number, rep 2 = 1.25e6; S2R+ cell number, rep 1 = 1.13e6; S2R+ cell number, rep 2 = 1.16e6; activity call = inactive
Cyt-c1 (Cytochrome c1) — Kc cell number, rep 1 = 1.28e6; Kc cell number, rep 2 = 1.37e6; S2R+ cell number, rep 1 = 1.31e6; S2R+ cell number, rep 2 = 1.26e6; activity call = inactive
CG32687 #1 — Kc cell number, rep 1 = 1.57e6; Kc cell number, rep 2 = 1.48e6; S2R+ cell number, rep 1 = 1.04e6; S2R+ cell number, rep 2 = 1.12e6; activity call = inactive
CG32687 #2 — Kc cell number, rep 1 = 1.60e6; Kc cell number, rep 2 = 1.50e6; S2R+ cell number, rep 1 = 1.02e6; S2R+ cell number, rep 2 = 1.15e6; activity call = inactive
CG3061 — Kc cell number, rep 1 = 1.28e6; Kc cell number, rep 2 = 1.54e6; S2R+ cell number, rep 1 = 1.15e6; S2R+ cell number, rep 2 = 1.22e6; activity call = inactive
CG33258 — Kc cell number, rep 1 = 1.46e6; Kc cell number, rep 2 = 1.52e6; S2R+ cell number, rep 1 = 1.17e6; S2R+ cell number, rep 2 = 1.27e6; activity call = inactive
Aduk (Another Drosophila Unc-51-like kinase) — Kc cell number, rep 1 = 1.81e6; Kc cell number, rep 2 = 1.68e6; S2R+ cell number, rep 1 = 1.33e6; S2R+ cell number, rep 2 = 1.43e6; activity call = inactive
Rph (Rabphilin) — Kc cell number, rep 1 = 1.46e6; Kc cell number, rep 2 = 1.40e6; S2R+ cell number, rep 1 = 9.63e5; S2R+ cell number, rep 2 = 1.03e6; activity call = inactive
Ptth (Prothoracicotropic hormone) — Kc cell number, rep 1 = 1.51e6; Kc cell number, rep 2 = 1.59e6; S2R+ cell number, rep 1 = 1.05e6; S2R+ cell number, rep 2 = 1.12e6; activity call = inactive
CG33272 — Kc cell number, rep 1 = 1.61e6; Kc cell number, rep 2 = 1.58e6; S2R+ cell number, rep 1 = 7.84e5; S2R+ cell number, rep 2 = 9.27e5; activity call = inactive
CG15812 — Kc cell number, rep 1 = 1.43e6; Kc cell number, rep 2 = 1.43e6; S2R+ cell number, rep 1 = 1.00e6; S2R+ cell number, rep 2 = 1.11e6; activity call = inactive
CG1824 — Kc cell number, rep 1 = 1.58e6; Kc cell number, rep 2 = 1.51e6; S2R+ cell number, rep 1 = 1.02e6; S2R+ cell number, rep 2 = 1.14e6; activity call = inactive

Part of the list above, reformatted:
target | reagent no. | Kc cell number, rep 1 | Kc cell number, rep 2 | S2R+ cell number, rep 1 | S2R+ cell number, rep 2 | activity call
CG33272 | 1 | 1.61e6 | 1.58e6 | 7.84e5 | 9.27e5 | inactive
CG15812 | 1 | 1.43e6 | 1.43e6 | 1.00e6 | 1.11e6 | inactive
CG1824 | 1 | 1.58e6 | 1.51e6 | 1.02e6 | 1.14e6 | inactive
